At least one structure is not confirmed: it was looked up by name or label, or the drawing left a doubt.
Experiments:
[1] = comminution of tadalafil in a stirring ball mill, particle size by dynamic light scattering; format: physicochemical; settings: before comminution
[2] = comminution of tadalafil with additives in a planetary ball mill, particle size by dynamic light scattering; format: physicochemical; settings: 2 hours, without additive (reference)

Structure (SMILES): CN1CC(=O)N2[C@H](c3ccc4c(c3)OCO4)c3[nH]c4ccccc4c3C[C@@H]2C1=O [tadalafil]
- initial particle size x50 [1]: 6.4 μm
- average particle size x50 after comminution [2]: ≥ 7 μm
